# Data published in article PMC13496012.
# Chains of the proteins cited; added tags and fusions are not shown.
# UniProt P05556: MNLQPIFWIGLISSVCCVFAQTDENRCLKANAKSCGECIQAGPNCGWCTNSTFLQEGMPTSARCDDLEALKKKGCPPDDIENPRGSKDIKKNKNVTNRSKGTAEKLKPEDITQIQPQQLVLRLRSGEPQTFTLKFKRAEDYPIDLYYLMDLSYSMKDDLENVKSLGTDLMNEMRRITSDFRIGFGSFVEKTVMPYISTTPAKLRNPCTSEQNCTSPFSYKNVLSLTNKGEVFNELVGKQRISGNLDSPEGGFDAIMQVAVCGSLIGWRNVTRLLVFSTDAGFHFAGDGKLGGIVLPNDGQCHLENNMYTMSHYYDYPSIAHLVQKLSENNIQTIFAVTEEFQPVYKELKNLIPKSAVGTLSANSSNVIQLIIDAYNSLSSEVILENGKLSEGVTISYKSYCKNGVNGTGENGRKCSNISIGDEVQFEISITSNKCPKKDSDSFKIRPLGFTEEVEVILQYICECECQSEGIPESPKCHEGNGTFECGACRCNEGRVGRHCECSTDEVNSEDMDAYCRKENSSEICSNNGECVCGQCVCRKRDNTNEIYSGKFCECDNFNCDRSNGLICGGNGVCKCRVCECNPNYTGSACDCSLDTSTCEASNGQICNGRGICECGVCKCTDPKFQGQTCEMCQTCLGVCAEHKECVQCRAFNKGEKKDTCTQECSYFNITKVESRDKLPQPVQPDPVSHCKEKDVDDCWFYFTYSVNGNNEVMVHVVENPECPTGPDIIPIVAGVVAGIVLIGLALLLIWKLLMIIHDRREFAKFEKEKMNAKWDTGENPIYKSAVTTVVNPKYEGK
# UniProt P16671: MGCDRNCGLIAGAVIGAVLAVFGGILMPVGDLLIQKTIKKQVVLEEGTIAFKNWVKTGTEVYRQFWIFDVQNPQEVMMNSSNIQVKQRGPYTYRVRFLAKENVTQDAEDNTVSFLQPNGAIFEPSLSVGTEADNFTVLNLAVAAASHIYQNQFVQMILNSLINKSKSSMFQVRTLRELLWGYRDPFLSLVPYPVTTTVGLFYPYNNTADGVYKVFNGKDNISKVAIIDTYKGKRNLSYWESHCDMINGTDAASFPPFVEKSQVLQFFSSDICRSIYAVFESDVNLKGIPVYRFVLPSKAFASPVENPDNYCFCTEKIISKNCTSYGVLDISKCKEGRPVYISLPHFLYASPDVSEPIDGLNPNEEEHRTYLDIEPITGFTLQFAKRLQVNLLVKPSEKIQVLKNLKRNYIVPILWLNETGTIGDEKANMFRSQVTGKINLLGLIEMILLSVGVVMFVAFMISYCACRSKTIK
# No constants are given. Whether binding was seen depends on the method and setting. Binding seen in cells or lysates may run through a third protein. Some results given as binding are weak or reduced against the parent protein; the word gives no strength.
# Legend:
# [1] = molecular target: β1-integrin subunit (human (endogenous in TIME cells)) (UniProt P05556); test: proximity ligation; whole cell PLA (Duolink) in fixed, permeabilized TIME cells transfected with Halo-CD36; rabbit anti-HaloTag with mouse anti-β1-integrin K20 (total) or 12G10 (active); mitofilin antibody as negative control; spinning disk confocal; read-out percent of cell area occupied by PLA puncta
# [2] = molecular target: β1-integrin subunit (human (endogenous in TIME cells)) (UniProt P05556); test: proximity ligation; cell surface PLA (Duolink) in fixed TIME cells transfected with Halo-CD36; anti-β1-integrin K20 applied before permeabilization, anti-HaloTag after; TIRFM; read-out ratio of PLA detection density in CD36-expressing to non-expressing cells
substance,measurement,setting,value
HaloTag-fused WT CD36 (Halo-CD36^WT) (from UniProt P16671 1-472) (receptor),binding,[1],binds
same,binding,[2],binds
